Laboratory results reported in paper PMC11742723, “The clinical-stage drug BTZ-043 accumulates in murine tuberculosis lesions and efficiently acts against Mycobacterium tuberculosis” (Nature Communications, 2025).
Values joined by “and” are separate entries in the source; they are usually repeats but may differ in a detail not shown here. Identical values can stand only once. The source gives many values for each of these; only a part stands here.

System: Caco-2 cell monolayers
Assay: In vitro permeability assay in Caco-2 monolayers

NC(=O)c1cnccn1 [PZA, pyrazinamide]
Calculated Amount (PZA (25 µg mL^-1), direction AB, compartment baso, time 30 min): 1333.17 | Calculated Amount (PZA (25 µg mL^-1), direction BA, compartment baso, time 0 min): 26413 and 25844.5 and 26583.2 | Calculated Amount (PZA (25 µg mL^-1), direction BA, compartment baso, time 120 min): 20560.3 and 20501.2 | Calculated Amount (PZA (40 µg mL^-1), direction AB, compartment api, time 0 min): 28976.4 and 28064.3 and 31284.4 | Calculated Amount (PZA (40 µg mL^-1), direction AB, compartment baso, time 0 min): 0 | Calculated Amount (PZA (40 µg mL^-1), direction AB, compartment baso, time 60 min): 4853.22 and 4349.7 and 4275.28 | Calculated Amount (PZA (40 µg mL^-1), direction AB, compartment baso, time 90 min): 5770.39 and 5601.9 and 5436.88 | Calculated Amount (PZA (40 µg mL^-1), direction AB, compartment baso, time 120 min): 4977.56 and 4113.08 and 4440.77 | Calculated Amount (PZA (40 µg mL^-1), direction BA, compartment api, time 30 min): 5459.68 and 4472.97 and 5086.94 | Calculated Amount (PZA (40 µg mL^-1), direction BA, compartment api, time 60 min): 9734.39 and 8339.56 and 9591.97 | Calculated Amount (PZA (40 µg mL^-1), direction BA, compartment api, time 90 min): 11611.6 and 10257.1 and 12377.9 | Calculated Amount (PZA (40 µg mL^-1), direction BA, compartment api, time 120 min): 12904.2 and 13264.5 and 15050 | Calculated Amount (PZA (40 µg mL^-1), direction BA, compartment baso, time 0 min): 31408.1 and 25372.8 and 29233.4
